PubChem BioAssay AID1259254 – NCATS, 2017

- Test: 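Gene knock-downs that lead to re-replication, shown by excess G2 DNA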 (primary screen)
- Cell system: human HCT116 colorectal cancer cells
- Reagents: single siRNA against human genes
- Duration: 3 days
- Detection: 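Imaged Hoechst DNA stain sorts each cell into a cycle phase by DNA amount; per plate, G2 fraction set to 0% for non-targeting and 100% for GMNN siRNA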
- Reading the numbers: G2 robust z-score and G2 cells, % of GMNN control: higher = more G2 cells, more excess DNA replication
- Hit rule: 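Active siRNAs have a G2 robust z of 5 or more median absolute deviations over the median, which in these data means about 38% or higher of GMNN control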
Shown is an unselected part of about 59,000 deposited reagents. In the full data, about 1,550 (2.6%) are marked active. 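G2 share is only a proxy for re-replication; each gene was hit by three separate siRNAs, and active genes were retested.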 A number with no mark means an inactive call. Reagents against one gene are numbered here. Not all columns of the deposit are shown. Not stated in the record: the amount of reagent.

no.	target	reagent	G2 robust z-score	G2 cells, % of GMNN control
1	LORICRIN (GeneID 4014)	1	1.05	10.3
2	LORICRIN (GeneID 4014)	2	1.5	13.5
3	LORICRIN (GeneID 4014)	3	0.332	5.3
4	HSD11B1L (GeneID 374875)	1	0.0506	3.32
5	HSD11B1L (GeneID 374875)	2	0.872	9.1
6	HSD11B1L (GeneID 374875)	3	1.17	11.2
7	GADD45A (GeneID 1647)	1	5.37 (active)	40.8
8	GADD45A (GeneID 1647)	2	-0.275	1.04
9	GADD45A (GeneID 1647)	3	0.847	8.93
10	TRIM38 (GeneID 10475)	1	3.08	24.6
11	TRIM38 (GeneID 10475)	2	-0.225	1.38
12	TRIM38 (GeneID 10475)	3	-0.893	-3.31
13	LPCAT1 (GeneID 79888)	1	8.6 (active)	63.5
14	LPCAT1 (GeneID 79888)	2	-0.256	1.16
15	LPCAT1 (GeneID 79888)	3	0.184	4.26
16	DGKK (GeneID 139189)	1	-1.01	-4.13
17	DGKK (GeneID 139189)	2	-0.478	-0.392
18	DGKK (GeneID 139189)	3	1.24	11.7
19	FAM124A (GeneID 220108)	1	2.05	17.4
20	FAM124A (GeneID 220108)	2	-0.663	-1.7
21	FAM124A (GeneID 220108)	3	-0.082	2.39
22	APRG1 (GeneID 339883)	1	-0.728	-2.15
23	APRG1 (GeneID 339883)	2	6.14 (active)	46.2
24	APRG1 (GeneID 339883)	3	-0.546	-0.871
25	GLCCI1 (GeneID 113263)	1	1.49	13.4
26	GLCCI1 (GeneID 113263)	2	-0.285	0.964
27	GLCCI1 (GeneID 113263)	3	0.506	6.53
28	UNC5D (GeneID 137970)	1	0.915	9.41
29	UNC5D (GeneID 137970)	2	-0.88	-3.22
30	UNC5D (GeneID 137970)	3	4.79	36.7
31	PNO1 (GeneID 56902)	1	0.172	4.18
32	PNO1 (GeneID 56902)	2	-0.121	2.11
33	PNO1 (GeneID 56902)	3	3.16	25.2
34	TMPRSS3 (GeneID 64699)	1	-0.225	1.39
35	TMPRSS3 (GeneID 64699)	2	-0.948	-3.7
36	TMPRSS3 (GeneID 64699)	3	16.7 (active)	121
37	TOE1 (GeneID 114034)	1	0.0109	3.04
38	TOE1 (GeneID 114034)	2	-0.381	0.284
39	TOE1 (GeneID 114034)	3	-0.85	-3.02
40	SDK1 (GeneID 221935)	1	-0.169	1.78
41	SDK1 (GeneID 221935)	2	-0.144	1.95
42	SDK1 (GeneID 221935)	3	3.13	25
43	OR5K4 (GeneID 403278)	1	0.64	7.47
44	OR5K4 (GeneID 403278)	2	0.614	7.28
45	OR5K4 (GeneID 403278)	3	-1.09	-4.67
46	SAMD3 (GeneID 154075)	1	-0.816	-2.77
47	SAMD3 (GeneID 154075)	2	3.39	26.8
48	SAMD3 (GeneID 154075)	3	6.13 (active)	46.1
49	ASB13 (GeneID 79754)	1	-1.55	-7.91
50	ASB13 (GeneID 79754)	2	0.127	3.86
51	ASB13 (GeneID 79754)	3	1.41	12.9
52	CASQ1 (GeneID 844)	1	0.411	5.86
53	CASQ1 (GeneID 844)	2	0.467	6.25
54	CASQ1 (GeneID 844)	3	-0.19	1.63
55	CIAO1 (GeneID 9391)	1	-0.233	1.33
56	CIAO1 (GeneID 9391)	2	-0.536	-0.806
57	CIAO1 (GeneID 9391)	3	-0.469	-0.331
58	HMGB1 (GeneID 3146)	1	-0.539	-0.828
59	HMGB1 (GeneID 3146)	2	2.94	23.7
60	HMGB1 (GeneID 3146)	3	0.0707	3.46
61	DPEP2 (GeneID 64174)	1	-0.744	-2.27
62	DPEP2 (GeneID 64174)	2	0.206	4.42
63	DPEP2 (GeneID 64174)	3	5.41 (active)	41
64	ISL2 (GeneID 64843)	1	0.705	7.93
65	ISL2 (GeneID 64843)	2	0.203	4.4
66	ISL2 (GeneID 64843)	3	1.08	10.6
67	VGLL1 (GeneID 51442)	1	-0.185	1.66
68	VGLL1 (GeneID 51442)	2	0.164	4.12
69	VGLL1 (GeneID 51442)	3	-0.241	1.27
